PubChem BioAssay AID1159584, Peter MacCallum Cancer Centre, 2016
Shown is one part, drawn at random, of about 18,000 reagents. Not stated in the record: the amount of reagent, the time to read-out.

- Test: 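Genes whose loss is lethal only together with E-cadherin loss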 (primary screen)
- Cell system: human MCF10A breast epithelial cells, parental and CDH1-null
- Reagents: siRNA against human genes
- Read-out: 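ATP luminescence (CellTiter-Glo) viability per line relative to mean mock wells over all plates, and the ratio of CDH1-null to parental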
- Reading the numbers: CDH1-null / parental viability ratio: higher = CDH1-null cells survive relatively better than parental; CDH1-null viability vs mock: higher = more viable CDH1-null cells; parental viability vs mock: higher = more viable parental cells

Target gene | CDH1-null / parental viability ratio | CDH1-null viability vs mock (fraction of mock) | parental viability vs mock (fraction of mock)
BFAR (bifunctional apoptosis regulator) | 0.81 | 0.5 | 0.62
SCUBE2 (signal peptide, CUB domain and EGF like domain containing 2) | 1.38 | 1.16 | 0.84
POLB (DNA polymerase beta) | 1.37 | 0.96 | 0.7
NTAQ1 (N-terminal glutamine amidase 1) | 0.91 | 0.72 | 0.79
RERGL (RERG like) | 0.85 | 0.68 | 0.8
CEP104 (centrosomal protein 104) | 0.77 | 0.74 | 0.96
PDE6G (phosphodiesterase 6G) | 0.95 | 0.78 | 0.82
HLA-DRB3 (major histocompatibility complex, class II, DR beta 3) | 0.9 | 0.57 | 0.63
CYSTM1 (cysteine rich transmembrane module containing 1) | 0.96 | 0.68 | 0.71
HACD3 (3-hydroxyacyl-CoA dehydratase 3) | 0.87 | 0.71 | 0.82
PRAC1 (PRAC1 small nuclear protein) | 0.88 | 0.85 | 0.97
DNAJC3 (DnaJ heat shock protein family (Hsp40) member C3) | 0.99 | 0.67 | 0.68

An excerpt from above, limited to “CDH1-null / parental viability ratio”:
CYSTM1 (cysteine rich transmembrane module containing 1) = 0.96
HACD3 (3-hydroxyacyl-CoA dehydratase 3) = 0.87
PRAC1 (PRAC1 small nuclear protein) = 0.88

The list goes on:
Target gene | CDH1-null / parental viability ratio | CDH1-null viability vs mock (fraction of mock) | parental viability vs mock (fraction of mock)
ELOVL7 (ELOVL fatty acid elongase 7) | 0.86 | 0.86 | 1
ARMC7 (armadillo repeat containing 7) | 0.88 | 0.76 | 0.86
ZNF396 (zinc finger protein 396) | 1.12 | 0.91 | 0.81
H2AC20 (H2A clustered histone 20) | 1.1 | 0.88 | 0.8
PPP1R2 (protein phosphatase 1 regulatory inhibitor subunit 2) | 1.28 | 0.82 | 0.64
EOGT (EGF domain specific O-linked N-acetylglucosamine transferase) | 1.07 | 0.93 | 0.87
ANKHD1 (ankyrin repeat and KH domain containing 1) | 1.11 | 0.62 | 0.56
VIRMA (vir like m6A methyltransferase associated) | 0.9 | 0.85 | 0.94
TECTA (tectorin alpha) | 0.89 | 1.02 | 1.14
DNAJB9 (DnaJ heat shock protein family (Hsp40) member B9) | 0.98 | 1 | 1.02
PHLDB1 (pleckstrin homology like domain family B member 1) | 0.9 | 0.6 | 0.67
SH3BP2 (SH3 domain binding protein 2) | 1.32 | 1.19 | 0.9
DENND10P1 (DENND10 pseudogene 1) | 0.87 | 0.82 | 0.94
CEP152 (centrosomal protein 152) | 0.89 | 0.96 | 1.08
NCOA6 (nuclear receptor coactivator 6) | 0.9 | 0.86 | 0.96
NUFIP1 (nuclear FMR1 interacting protein 1) | 1.29 | 0.8 | 0.62
